Assay results published in PMC12858401.
These are yes or no findings as the source states them, for the method shown. In cells and extracts the contact can be indirect. Some binding calls cover weakened binding; strength is not graded here. One block for each molecule: values may come before it.

By UniProt entry, the sequences of proteins in these tests, tags left out.
UniProt P62330: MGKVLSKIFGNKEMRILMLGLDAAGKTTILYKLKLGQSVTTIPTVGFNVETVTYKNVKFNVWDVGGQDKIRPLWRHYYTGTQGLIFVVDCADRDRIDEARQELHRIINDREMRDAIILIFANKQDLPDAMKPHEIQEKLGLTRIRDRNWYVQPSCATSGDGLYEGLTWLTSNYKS

Tests used:
[1] = target: Endogenous epidermal growth factor receptor (EGFR) (human (endogenous in A549)) (UniProt P00533); experiment: proximity ligation; Duolink flowPLA read by flow cytometry; fixed, permeabilized A549 cells, serum-starved, with or without EGF
[2] = target: Endogenous epidermal growth factor receptor (EGFR) (human (endogenous in A549)) (UniProt P00533); experiment: proximity ligation; Duolink in situ PLA read by confocal imaging; fixed, permeabilized nonengineered WT A549 cells, serum-starved, with or without EGF (5 min); PLA foci per cell

- binding [1]: binds
- binding [2]: binds
Molecule: Protein tyrosine phosphatase transmembrane receptor (PTPRF) (from UniProt P10586 30-1907)

- binding [1]: binds
B1: DNM1 (protein, UniProt Q05193 1-864)
chain: MGNRGMEDLIPLVNRLQDAFSAIGQNADLDLPQIAVVGGQSAGKSSVLENFVGRDFLPRGSGIVTRRPLVLQLVNATTEYAEFLHCKGKKFTDFEEVRLEIEAETDRVTGTNKGISPVPINLRVYSPHVLNLTLVDLPGMTKVPVGDQPPDIEFQIRDMLMQFVTKENCLILAVSPANSDLANSDALKVAKEVDPQGQRTIGVITKLDLMDEGTDARDVLENKLLPLRRGYIGVVNRSQKDIDGKKDITAALAAERKFFLSHPSYRHLADRMGTPYLQKVLNQQLTNHIRDTLPGLRNKLQSQLLSIEKEVEEYKNFRPDDPARKTKALLQMVQQFAVDFEKRIEGSGDQIDTYELSGGARINRIFHERFPFELVKMEFDEKELRREISYAIKNIHGIRTGLFTPDMAFETIVKKQVKKIREPCLKCVDMVISELISTVRQCTKKLQQYPRLREEMERIVTTHIREREGRTKEQVMLLIDIELAYMNTNHEDFIGFANAQQRSNQMNKKKTSGNQDEILVIRKGWLTINNIGIMKGGSKEYWFVLTAENLSWYKDDEEKEKKYMLSVDNLKLRDVEKGFMSSKHIFALFNTEQRNVYKDYRQLELACETQEEVDSWKASFLRAGVYPERVGDKEKASETEENGSDSFMHSMDPQLERQVETIRNLVDSYMAIVNKTVRDLMPKTIMHLMINNTKEFIFSELLANLYSCGDQNTLMEESAEQAQRRDEMLRMYHALKEALSIIGDINTTTVSTPMPPPVDDSWLQVQSVPAGRRSPTSSPTPQRRAPAVPPARPGSRGPAPGPPPAGSALGGAPPVPSRPGASPDPFGPPPQVPSRPNRAPPGVPSRSGQASPSRPESPRPPFDL

More lines, now with the values behind:

Molecule: ARF6, an ADP-ribosylation factor (from UniProt P62330 1-175)
- binding [1]: binds

Molecule: β-catenin (from UniProt P35222 1-781)
- binding [1]: binds
